Measured values from the supplement of paper PMC10849652.
The list shows a part of the results. Residues, ends and D or L forms follow the SMILES beside them. *: point of attachment. Cbz = O=C(OCc1ccccc1)*

Sequences of proteins named here, by UniProt entry; tags and fusion partners are left off. A change or cut given only in a name is not applied to a line headed by its entry.
UniProt P62308, whole entry, looked up: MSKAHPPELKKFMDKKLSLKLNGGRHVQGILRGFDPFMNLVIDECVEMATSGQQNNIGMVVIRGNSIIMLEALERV
UniProt O95295: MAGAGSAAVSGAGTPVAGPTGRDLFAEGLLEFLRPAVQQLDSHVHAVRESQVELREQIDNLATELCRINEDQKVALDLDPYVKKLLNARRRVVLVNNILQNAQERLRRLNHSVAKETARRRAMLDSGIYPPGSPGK
UniProt Q8ND04: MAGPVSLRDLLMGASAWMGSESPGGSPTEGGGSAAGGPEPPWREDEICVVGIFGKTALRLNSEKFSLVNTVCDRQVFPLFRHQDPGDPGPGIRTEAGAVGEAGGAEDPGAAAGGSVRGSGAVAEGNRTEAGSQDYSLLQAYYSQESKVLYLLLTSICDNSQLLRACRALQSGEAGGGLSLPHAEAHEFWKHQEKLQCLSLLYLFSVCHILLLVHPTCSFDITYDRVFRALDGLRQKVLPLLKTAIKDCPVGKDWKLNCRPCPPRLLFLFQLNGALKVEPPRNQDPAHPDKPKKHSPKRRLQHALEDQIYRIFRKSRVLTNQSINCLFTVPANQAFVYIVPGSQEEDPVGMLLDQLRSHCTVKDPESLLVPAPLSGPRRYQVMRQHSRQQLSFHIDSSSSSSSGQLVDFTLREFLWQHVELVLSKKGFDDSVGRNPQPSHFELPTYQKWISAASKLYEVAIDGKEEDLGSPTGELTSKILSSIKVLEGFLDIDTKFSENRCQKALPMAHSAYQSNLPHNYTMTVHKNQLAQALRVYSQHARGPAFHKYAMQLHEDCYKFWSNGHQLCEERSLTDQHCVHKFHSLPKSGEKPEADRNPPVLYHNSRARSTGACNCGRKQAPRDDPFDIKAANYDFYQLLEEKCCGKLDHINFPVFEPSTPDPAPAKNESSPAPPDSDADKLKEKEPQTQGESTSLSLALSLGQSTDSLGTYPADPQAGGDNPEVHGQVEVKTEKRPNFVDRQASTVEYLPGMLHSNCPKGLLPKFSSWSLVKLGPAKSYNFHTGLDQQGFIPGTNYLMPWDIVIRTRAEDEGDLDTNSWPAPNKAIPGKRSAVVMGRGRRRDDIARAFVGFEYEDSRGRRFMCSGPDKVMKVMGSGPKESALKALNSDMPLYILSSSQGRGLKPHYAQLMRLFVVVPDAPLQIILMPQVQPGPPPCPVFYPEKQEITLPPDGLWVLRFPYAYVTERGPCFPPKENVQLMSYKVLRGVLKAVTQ
UniProt Q96KF7: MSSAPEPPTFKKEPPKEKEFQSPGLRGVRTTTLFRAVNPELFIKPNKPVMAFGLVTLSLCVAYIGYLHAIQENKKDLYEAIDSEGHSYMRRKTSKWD
UniProt Q99717: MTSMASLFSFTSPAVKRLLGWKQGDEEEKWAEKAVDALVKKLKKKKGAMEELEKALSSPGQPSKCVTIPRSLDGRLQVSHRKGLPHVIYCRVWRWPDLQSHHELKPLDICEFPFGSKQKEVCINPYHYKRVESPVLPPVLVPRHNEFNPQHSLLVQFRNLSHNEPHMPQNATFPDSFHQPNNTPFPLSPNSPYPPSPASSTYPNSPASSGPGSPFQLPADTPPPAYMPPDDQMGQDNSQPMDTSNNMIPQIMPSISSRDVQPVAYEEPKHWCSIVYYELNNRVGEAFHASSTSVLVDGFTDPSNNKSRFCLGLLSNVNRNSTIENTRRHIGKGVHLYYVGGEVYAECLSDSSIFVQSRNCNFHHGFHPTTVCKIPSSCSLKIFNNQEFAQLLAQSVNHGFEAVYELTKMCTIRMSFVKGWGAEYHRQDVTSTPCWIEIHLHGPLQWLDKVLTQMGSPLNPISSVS
UniProt O60641: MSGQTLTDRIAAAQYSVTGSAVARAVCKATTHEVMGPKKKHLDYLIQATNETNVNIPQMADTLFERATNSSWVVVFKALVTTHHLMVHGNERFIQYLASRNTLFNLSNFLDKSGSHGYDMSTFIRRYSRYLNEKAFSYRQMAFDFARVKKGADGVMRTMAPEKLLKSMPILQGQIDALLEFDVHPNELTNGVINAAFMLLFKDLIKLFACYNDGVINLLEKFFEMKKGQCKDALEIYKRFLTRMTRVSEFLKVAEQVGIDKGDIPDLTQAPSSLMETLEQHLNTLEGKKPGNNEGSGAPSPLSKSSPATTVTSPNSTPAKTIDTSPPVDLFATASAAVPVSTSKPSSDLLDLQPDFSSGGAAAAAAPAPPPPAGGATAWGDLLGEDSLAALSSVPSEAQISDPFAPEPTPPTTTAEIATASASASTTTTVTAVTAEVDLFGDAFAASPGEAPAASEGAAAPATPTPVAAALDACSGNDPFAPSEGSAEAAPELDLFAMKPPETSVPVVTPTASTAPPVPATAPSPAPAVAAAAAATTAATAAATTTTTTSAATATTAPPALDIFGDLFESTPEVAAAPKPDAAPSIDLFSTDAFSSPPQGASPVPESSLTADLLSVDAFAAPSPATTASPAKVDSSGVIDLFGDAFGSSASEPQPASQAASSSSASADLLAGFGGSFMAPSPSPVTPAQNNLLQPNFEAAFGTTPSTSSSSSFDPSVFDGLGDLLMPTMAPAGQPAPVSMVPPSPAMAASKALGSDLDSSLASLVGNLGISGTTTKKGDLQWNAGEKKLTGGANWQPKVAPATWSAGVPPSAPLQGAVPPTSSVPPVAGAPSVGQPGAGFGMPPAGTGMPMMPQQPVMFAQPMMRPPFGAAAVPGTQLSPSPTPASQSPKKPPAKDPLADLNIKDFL
UniProt Q9BX66: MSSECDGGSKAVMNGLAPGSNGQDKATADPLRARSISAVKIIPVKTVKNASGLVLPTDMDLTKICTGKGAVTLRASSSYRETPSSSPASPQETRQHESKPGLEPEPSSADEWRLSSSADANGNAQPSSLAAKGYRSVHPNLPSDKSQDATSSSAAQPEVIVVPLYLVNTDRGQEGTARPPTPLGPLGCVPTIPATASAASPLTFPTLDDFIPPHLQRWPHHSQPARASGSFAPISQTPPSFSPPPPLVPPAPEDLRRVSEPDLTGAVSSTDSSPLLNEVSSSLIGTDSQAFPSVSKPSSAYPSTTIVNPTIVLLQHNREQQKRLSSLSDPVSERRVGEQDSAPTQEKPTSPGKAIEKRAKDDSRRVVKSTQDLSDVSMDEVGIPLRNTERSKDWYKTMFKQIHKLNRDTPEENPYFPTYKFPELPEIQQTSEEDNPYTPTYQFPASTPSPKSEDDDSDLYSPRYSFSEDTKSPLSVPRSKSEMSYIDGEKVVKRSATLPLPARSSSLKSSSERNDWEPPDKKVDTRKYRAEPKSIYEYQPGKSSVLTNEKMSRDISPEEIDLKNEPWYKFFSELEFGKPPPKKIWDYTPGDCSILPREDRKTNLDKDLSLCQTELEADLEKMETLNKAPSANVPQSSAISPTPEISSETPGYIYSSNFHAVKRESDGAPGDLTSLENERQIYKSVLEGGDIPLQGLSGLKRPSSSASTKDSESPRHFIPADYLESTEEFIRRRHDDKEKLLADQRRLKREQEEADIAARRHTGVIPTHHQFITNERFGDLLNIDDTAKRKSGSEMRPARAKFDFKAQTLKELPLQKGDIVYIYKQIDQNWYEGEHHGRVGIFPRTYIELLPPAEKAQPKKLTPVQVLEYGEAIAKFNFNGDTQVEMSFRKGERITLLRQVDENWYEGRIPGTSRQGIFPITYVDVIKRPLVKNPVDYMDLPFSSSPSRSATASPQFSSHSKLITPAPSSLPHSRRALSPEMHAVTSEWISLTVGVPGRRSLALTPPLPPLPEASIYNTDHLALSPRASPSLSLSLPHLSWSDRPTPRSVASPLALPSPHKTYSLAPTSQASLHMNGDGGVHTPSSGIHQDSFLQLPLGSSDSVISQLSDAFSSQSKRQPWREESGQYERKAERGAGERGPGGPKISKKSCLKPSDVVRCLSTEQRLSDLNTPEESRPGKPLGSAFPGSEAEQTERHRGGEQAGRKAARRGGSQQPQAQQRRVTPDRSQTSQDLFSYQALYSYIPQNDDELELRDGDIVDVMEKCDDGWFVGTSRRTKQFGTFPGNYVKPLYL
UniProt Q8NDV3: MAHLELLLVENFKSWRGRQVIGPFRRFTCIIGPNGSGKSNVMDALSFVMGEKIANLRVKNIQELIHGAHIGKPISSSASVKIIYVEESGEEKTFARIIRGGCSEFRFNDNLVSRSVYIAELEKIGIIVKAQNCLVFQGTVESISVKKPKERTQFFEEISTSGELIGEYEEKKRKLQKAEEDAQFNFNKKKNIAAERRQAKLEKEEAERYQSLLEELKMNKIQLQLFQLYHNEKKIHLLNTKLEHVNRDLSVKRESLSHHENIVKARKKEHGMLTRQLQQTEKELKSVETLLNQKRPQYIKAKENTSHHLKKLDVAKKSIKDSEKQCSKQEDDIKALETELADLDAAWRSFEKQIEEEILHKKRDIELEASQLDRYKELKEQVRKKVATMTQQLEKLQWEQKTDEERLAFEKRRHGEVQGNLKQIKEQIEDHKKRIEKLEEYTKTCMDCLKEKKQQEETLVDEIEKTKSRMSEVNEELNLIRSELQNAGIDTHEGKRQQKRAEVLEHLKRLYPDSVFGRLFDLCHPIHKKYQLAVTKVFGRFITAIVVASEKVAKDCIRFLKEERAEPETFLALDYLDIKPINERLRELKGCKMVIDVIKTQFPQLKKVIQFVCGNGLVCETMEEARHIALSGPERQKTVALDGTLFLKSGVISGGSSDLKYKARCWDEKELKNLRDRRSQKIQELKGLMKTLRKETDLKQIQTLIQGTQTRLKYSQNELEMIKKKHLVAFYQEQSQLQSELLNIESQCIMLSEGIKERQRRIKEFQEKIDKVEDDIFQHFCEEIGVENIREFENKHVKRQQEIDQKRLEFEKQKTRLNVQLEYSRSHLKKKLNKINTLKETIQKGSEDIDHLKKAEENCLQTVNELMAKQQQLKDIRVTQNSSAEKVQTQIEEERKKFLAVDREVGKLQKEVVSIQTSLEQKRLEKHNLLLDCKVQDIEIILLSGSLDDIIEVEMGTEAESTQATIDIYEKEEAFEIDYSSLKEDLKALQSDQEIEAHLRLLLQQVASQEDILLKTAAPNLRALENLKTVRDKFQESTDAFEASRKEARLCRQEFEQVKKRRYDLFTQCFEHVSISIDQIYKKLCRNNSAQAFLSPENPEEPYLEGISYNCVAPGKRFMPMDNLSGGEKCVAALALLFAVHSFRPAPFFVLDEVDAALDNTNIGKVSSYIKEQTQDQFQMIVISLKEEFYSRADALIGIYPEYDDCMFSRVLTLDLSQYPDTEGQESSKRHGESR
UniProt O75391: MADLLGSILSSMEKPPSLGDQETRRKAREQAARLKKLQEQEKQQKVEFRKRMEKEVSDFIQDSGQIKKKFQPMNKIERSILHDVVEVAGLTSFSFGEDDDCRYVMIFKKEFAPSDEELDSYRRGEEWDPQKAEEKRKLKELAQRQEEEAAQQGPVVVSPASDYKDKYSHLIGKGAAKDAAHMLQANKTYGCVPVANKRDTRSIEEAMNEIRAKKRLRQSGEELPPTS
UniProt P62316, whole entry, looked up: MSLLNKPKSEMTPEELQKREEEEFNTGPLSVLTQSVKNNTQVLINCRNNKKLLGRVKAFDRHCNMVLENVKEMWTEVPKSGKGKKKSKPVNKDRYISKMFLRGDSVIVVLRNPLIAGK
UniProt O95721: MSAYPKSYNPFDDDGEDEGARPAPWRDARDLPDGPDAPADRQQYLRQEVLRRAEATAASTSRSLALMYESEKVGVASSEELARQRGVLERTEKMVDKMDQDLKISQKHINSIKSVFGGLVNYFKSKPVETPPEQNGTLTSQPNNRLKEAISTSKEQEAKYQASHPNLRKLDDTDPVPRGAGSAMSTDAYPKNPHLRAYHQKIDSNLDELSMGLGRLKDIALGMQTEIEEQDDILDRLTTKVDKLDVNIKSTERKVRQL
UniProt Q6GMV2: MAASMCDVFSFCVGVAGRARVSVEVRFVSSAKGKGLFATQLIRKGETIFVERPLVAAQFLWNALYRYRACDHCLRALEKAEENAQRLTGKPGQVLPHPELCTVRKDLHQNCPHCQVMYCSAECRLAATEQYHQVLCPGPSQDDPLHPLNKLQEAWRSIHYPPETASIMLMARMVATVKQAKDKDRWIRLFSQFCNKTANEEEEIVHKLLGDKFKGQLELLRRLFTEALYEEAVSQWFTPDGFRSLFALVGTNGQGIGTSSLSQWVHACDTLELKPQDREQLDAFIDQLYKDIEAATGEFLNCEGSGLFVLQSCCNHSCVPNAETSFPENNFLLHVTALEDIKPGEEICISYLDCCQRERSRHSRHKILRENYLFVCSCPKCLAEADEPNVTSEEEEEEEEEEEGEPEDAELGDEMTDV
UniProt Q15599: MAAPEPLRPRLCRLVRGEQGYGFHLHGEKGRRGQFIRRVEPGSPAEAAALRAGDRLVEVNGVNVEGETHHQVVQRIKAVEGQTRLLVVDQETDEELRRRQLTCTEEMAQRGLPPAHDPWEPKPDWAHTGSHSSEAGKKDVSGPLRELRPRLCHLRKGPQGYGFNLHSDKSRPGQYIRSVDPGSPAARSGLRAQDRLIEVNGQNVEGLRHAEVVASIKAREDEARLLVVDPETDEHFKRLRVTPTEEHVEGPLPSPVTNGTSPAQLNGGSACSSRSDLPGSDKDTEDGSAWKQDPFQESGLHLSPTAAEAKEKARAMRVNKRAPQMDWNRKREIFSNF

How the values were obtained:
Test in all cases: log2 fold change, soluble protein after heating vs DMSO (PISA); higher = thermal stabilisation; K562 cells, 10 uM, 30 min; active = over 0.2 and 3.5 SD of the protein, either way, in both replicates (recomputed)
IRAK-1-4 Inhibitor I = compound: C1COCCN1CCN2C3=CC=CC=C3N=C2NC(=O)C4=CC(=CC=C4)[N+](=O)[O-] [IRAK-1-4 Inhibitor I]
Procedure, shortened: (§1)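 K562 cells at 2×10^6 cells/mL were treated for 30 min with 10 μM compound, and aliquots were heated for 3 min over 48°C-58°C before pooling. Extraction used PBS with 0.5% NP-40 at 4°C, and soluble protein was the supernatant after 21,000xg for 90 min, measured by TMTpro 16plex LC-MS/MS with channel sums equalised. Thermal stability values, relative to control samples and from duplicates, are log2 fold changes.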

ibrutinib = compound: C=CC(=O)N1CCC[C@@H](n2nc(-c3ccc(Oc4ccccc4)cc3)c3c(N)ncnc32)C1 [ibrutinib]
Procedure, shortened: as §1

[1] = compound: CC(=O)c1cnc2ccc(-c3cc(Cl)c(O)c(Cl)c3)nc2c1N[C@H]1CC[C@H](CN(C)C)CC1
Procedure, shortened: as §1

ralimetinib = compound: CC(C)(C)Cn1c(N)nc2ccc(-c3[nH]c(C(C)(C)C)nc3-c3ccc(F)cc3)nc21 [ralimetinib]
Procedure, shortened: as §1

[2] = compound: CC(C)(O)CC(=O)NCCn1ccc2ncnc(Nc3ccc(Oc4cccc(C(F)(F)F)c4)c(Cl)c3)c21
Procedure, shortened: as §1

[3] = compound: CC(C)C1=C2N=C(C=C(N2N=C1)NCC3=CC=CC=C3)NCCCCCCN
Procedure, shortened: as §1

[4] = compound: CC(C)C[C@@H](C=O)NC(=O)[C@H](CC(C)C)NC(=O)[C@H](CC(C)C)NC(=O)OCc1ccccc1
Procedure, shortened: as §1

pinometostat = compound: CC(C)N(C[C@H]1O[C@@H](n2cnc3c(N)ncnc32)[C@H](O)[C@@H]1O)[C@H]1C[C@@H](CCc2nc3cc(C(C)(C)C)ccc3[nH]2)C1 [pinometostat]
Procedure, shortened: as §1

[5] = compound: CC1=C(C(CC(=O)N1)C2=CC=C(C=C2)C(F)(F)F)C(=O)NC3=C(C=C4C(=C3)C=NN4)F
Procedure, shortened: as §1

[6] = compound: CC1=C(C2=C(C=C1)C(=O)C3=CC=CC=C3N2CCCN)C
Procedure, shortened: as §1

Measured: log2 fold change

SPA17 (UniProt Q15506)
inactive: IRAK-1-4 Inhibitor I 0.079 | ibrutinib -0.012 | [1] 0.044 | ralimetinib 0.005 | [2] 0.055 | [3] 0.05 | [4] 0.014 | pinometostat -0.07 | [5] 0.039 | [6] -0.056

SMG5 (UniProt Q9UPR3)
inactive: IRAK-1-4 Inhibitor I -0.007 | ibrutinib -0.067 | [1] 0.195 | ralimetinib 0.05 | [2] 0.07 | [3] -0.081 | [4] 0.034 | pinometostat 0.076 | [5] 0.037 | [6] 0.159

SNRPG (UniProt P62308)
inactive: IRAK-1-4 Inhibitor I 0.008 | ibrutinib 0.031 | [1] 0.084 | ralimetinib 0.021 | [2] 0.042 | [3] 0.175 | [4] 0.029 | pinometostat 0.012 | [5] -0.018 | [6] 0.063

SON isoform 9 (UniProt P18583)
inactive: IRAK-1-4 Inhibitor I 0.115 | ibrutinib -0.042 | [1] 0 | ralimetinib 0.228 | [2] 0.173 | [3] -0.23 | [4] 0 | pinometostat 0.075 | [5] -0.067 | [6] 0.019

SNRNP200 (UniProt O75643)
inactive: IRAK-1-4 Inhibitor I 0.046 | ibrutinib -0.005 | [1] 0.068 | ralimetinib 0.007 | [2] 0.038 | [3] 0.156 | [4] 0.069 | pinometostat 0.071 | [5] -0.034 | [6] 0.075

SNAPIN (UniProt O95295)
inactive: IRAK-1-4 Inhibitor I 0.023 | ibrutinib -0.008 | [1] 0.011 | ralimetinib -0.07 | [2] -0.095 | [3] 0.013 | [4] -0.029 | pinometostat -0.063 | [5] 0.025 | [6] 0.151

SMARCA5 (UniProt O60264)
active: [6] -0.97
inactive: IRAK-1-4 Inhibitor I -0.108 | ibrutinib -0.135 | [1] 0.103 | ralimetinib 0.033 | [2] -0.113 | [3] -0.025 | [4] 0.084 | pinometostat 0.068

SP3 (UniProt Q02447)
active: [6] 0.607
inactive: IRAK-1-4 Inhibitor I -0.129 | ibrutinib 0.003 | [1] -0.007 | ralimetinib 0 | [2] 0.022 | [3] -0.006 | [4] 0.054 | pinometostat 0.026

SMG8 isoform 2 (UniProt Q8ND04)
inactive: IRAK-1-4 Inhibitor I -0.133 | ibrutinib -0.006 | [1] -0.42 | ralimetinib 0.025 | [2] -0.044 | [3] -0.125 | [4] 0.039 | pinometostat 0.037 | [5] -0.032 | [6] -0.014

SMPD2 (UniProt O60906)
inactive: IRAK-1-4 Inhibitor I 0.162 | ibrutinib 0.157 | [1] 0.035 | ralimetinib -0.044 | [2] -0.009 | [3] -0.08 | [4] 0.001 | pinometostat 0.042 | [5] -0.032 | [6] 0.13

SMIM8 (UniProt Q96KF7)
inactive: IRAK-1-4 Inhibitor I 0.056 | ibrutinib -0.013 | [1] 0.025 | ralimetinib -0.112 | [2] 0.04 | [3] 0.016 | [4] 0.052 | pinometostat -0.08 | [5] -0.027 | [6] 0.008

SNRPA (UniProt P09012)
inactive: IRAK-1-4 Inhibitor I 0.007 | ibrutinib 0.046 | [1] 0.097 | ralimetinib 0.006 | [2] 0.187 | [3] 0.198 | [4] 0.029 | pinometostat 0.012 | [5] -0.007 | [6] 0.02

SMAD4 (UniProt Q13485)
inactive: IRAK-1-4 Inhibitor I 0.072 | ibrutinib -0.039 | [1] -0.017 | ralimetinib 0.011 | [2] -0.016 | [3] 0.084 | [4] 0.089 | pinometostat -0.041 | [5] 0.013 | [6] 0.071

SMAD5 (UniProt Q99717)
inactive: IRAK-1-4 Inhibitor I -0.059 | ibrutinib -0.042 | [1] 0.021 | ralimetinib 0.129 | [2] -0.109 | [3] 0.184 | [4] 0.02 | pinometostat 0.094 | [5] -0.131 | [6] 0.096

SMAD9 (UniProt O15198)
inactive: IRAK-1-4 Inhibitor I -0.033 | ibrutinib 0.007 | [1] -0.092 | ralimetinib -0.087 | [2] -0.022 | [3] 0.005 | [4] 0.06 | pinometostat 0.024 | [6] 0.017

SNAP91 (UniProt O60641)
inactive: IRAK-1-4 Inhibitor I 0.069 | ibrutinib 0.082 | [1] -0.009 | ralimetinib 0.016 | [2] -0.049 | [3] 0.058 | [4] 0.015 | pinometostat -0.073 | [5] -0.063 | [6] 0.026

SOS1 (UniProt Q07889)
inactive: IRAK-1-4 Inhibitor I -0.01 | ibrutinib 0.157 | [1] -0.042 | ralimetinib 0.124 | [2] -0.234 | [3] -0.028 | [4] 0.106 | pinometostat 0.031 | [5] 0.075 | [6] 0.117

SNCA (UniProt P37840)
inactive: IRAK-1-4 Inhibitor I 0.024 | ibrutinib -0.023 | [1] 0.028 | ralimetinib -0.013 | [2] -0.018 | [3] 0.085 | [4] -0.048 | pinometostat -0.05 | [5] 0.012 | [6] 0

SMC4 (UniProt Q9NTJ3)
inactive: IRAK-1-4 Inhibitor I -0.077 | ibrutinib -0.039 | [1] 0.024 | ralimetinib 0.09 | [2] -0.092 | [3] -0.083 | [4] 0.073 | pinometostat 0.01 | [5] -0.014 | [6] 0.005

SORBS1 isoform 12 (UniProt Q9BX66)
inactive: IRAK-1-4 Inhibitor I 0.036 | ibrutinib -0.01 | [1] -0.12 | ralimetinib 0.033 | [2] -0.026 | [3] -0.019 | [4] -0.006 | pinometostat -0.013 | [5] 0.039 | [6] 0.001

SMC6 isoform 2 (UniProt Q96SB8)
inactive: IRAK-1-4 Inhibitor I -0.003 | ibrutinib 0.007 | [1] -0.036 | ralimetinib 0.051 | [2] -0.06 | [3] 0.105 | [4] 0.084 | pinometostat 0.042 | [5] -0.028 | [6] -0.268

SLCO4A1 (UniProt Q96BD0)
inactive: IRAK-1-4 Inhibitor I -0.228 | ibrutinib -0.272 | [1] -0.017 | ralimetinib 0.041 | [2] 0.032 | [3] 0.246 | [4] 0.089 | pinometostat 0.168 | [5] -0.06 | [6] 0.111

SMC1B isoform 3 (UniProt Q8NDV3)
inactive: IRAK-1-4 Inhibitor I 0.028 | ibrutinib 0.138 | [1] -0.076 | ralimetinib -0.152 | [2] -0.029 | [3] 0.023 | [4] 0.008 | pinometostat -0.053 | [5] 0.016 | [6] -0.082

SPAG7 (UniProt O75391)
inactive: IRAK-1-4 Inhibitor I 0.068 | ibrutinib 0.003 | [1] 0.03 | ralimetinib -0.018 | [2] -0.005 | [3] 0.049 | [4] 0.028 | pinometostat -0.037 | [5] 0.023 | [6] -0.033

SNRPD2 (UniProt P62316)
inactive: IRAK-1-4 Inhibitor I 0.02 | ibrutinib -0.01 | [1] 0.081 | ralimetinib -0.015 | [2] 0.089 | [3] 0.184 | [4] 0.002 | pinometostat -0.023 | [5] -0.004 | [6] 0.017

SNAP29 (UniProt O95721)
inactive: IRAK-1-4 Inhibitor I 0.03 | ibrutinib -0.014 | [1] 0.025 | ralimetinib -0.015 | [2] -0.001 | [3] -0.004 | [4] 0.019 | pinometostat -0.061 | [5] 0.011 | [6] 0.005

SOCS2 (UniProt O14508)
inactive: IRAK-1-4 Inhibitor I 0.047 | ibrutinib -0.034 | [1] -0.035 | ralimetinib -0.072 | [2] -0.054 | [3] 0.056 | [4] 0.048 | pinometostat -0.031 | [5] -0.018 | [6] -0.013

SMIM26, A0A096LP01
inactive: IRAK-1-4 Inhibitor I 0.096 | ibrutinib -0.043 | [1] -0.014 | ralimetinib -0.017 | [2] -0.099 | [3] 0.039 | [4] 0.012 | pinometostat -0.057 | [5] 0.003 | [6] -0.052

Two successive records out of the list so far, for reference:
SNAP29 (UniProt O95721)
inactive: IRAK-1-4 Inhibitor I 0.03 | ibrutinib -0.014 | [1] 0.025 | ralimetinib -0.015 | [2] -0.001 | [3] -0.004 | [4] 0.019 | pinometostat -0.061 | [5] 0.011 | [6] 0.005

SOCS2 (UniProt O14508)
inactive: IRAK-1-4 Inhibitor I 0.047 | ibrutinib -0.034 | [1] -0.035 | ralimetinib -0.072 | [2] -0.054 | [3] 0.056 | [4] 0.048 | pinometostat -0.031 | [5] -0.018 | [6] -0.013

Later entries.

SMYD5 (UniProt Q6GMV2)
inactive: IRAK-1-4 Inhibitor I 0.051 | ibrutinib 0.002 | [1] -0.012 | ralimetinib -0.051 | [2] -0.019 | [3] 0.025 | [4] -0.008 | pinometostat -0.036 | [5] -0.002 | [6] 0.025

SLC9A3R2 (UniProt Q15599)
inactive: IRAK-1-4 Inhibitor I 0.053 | ibrutinib 0.064 | [1] -0.043 | ralimetinib -0.032 | [2] 0.011 | [3] 0.053 | [4] -0.004 | pinometostat 0.035 | [5] 0.023 | [6] 0.006
